From article PMC11745951 come the findings set out here.

No constants are given. Whether binding was seen depends on the method and setting. Binding seen in cells or lysates may run through a third protein. Some results given as binding are weak or reduced against the parent protein; the word gives no strength.

The assay addresses Heat shock protein 90α (Hsp90α) (human (endogenous in HepG2)) (UniProt P07900). As to the kind of experiment: co-IP; Hsp90α immunoprecipitates from HepG2 cells: 1 μg antibody with 1000 μg protein extract, 4°C overnight, Protein A + G Magnetic Beads, blot for LXRα; cells treated with STA9090 or NB.

B1: Liver X receptor α (LXRα) (protein, UniProt Q13133 1-447)
chain: MSLWLGAPVPDIPPDSAVELWKPGAQDASSQAQGGSSCILREEARMPHSAGGTAGVGLEAAEPTALLTRAEPPSEPTEIRPQKRKKGPAPKMLGNELCSVCGDKASGFHYNVLSCEGCKGFFRRSVIKGAHYICHSGGHCPMDTYMRRKCQECRLRKCRQAGMREECVLSEEQIRLKKLKRQEEEQAHATSLPPRASSPPQILPQLSPEQLGMIEKLVAAQQQCNRRSFSDRLRVTPWPMAPDPHSREARQQRFAHFTELAIVSVQEIVDFAKQLPGFLQLSREDQIALLKTSAIEVMLLETSRRYNPGSESITFLKDFSYNREDFAKAGLQVEFINPIFEFSRAMNELQLNDAEFALLIAISIFSADRPNVQDQLQVERLQHTYVEALHAYVSIHHPHDRLMFPRMLMKLVSLRTLSSVHSEQVFALRLQDKKLPPLLSEIWDVHE
As for B1, the binding result is given as “binds”.
